According to publication PMC9656702, “Unveiling a New Selenocyanate as a Multitarget Candidate with Anticancer, Antileishmanial and Antibacterial Potential” (Molecules, 2022):

Legend:
MDA-MB-231 = test: Antiproliferative MTT assay, MDA-MB-231 breast cancer cells; type: cell-based, human; conditions: SI calculated as IC50 (184B5)/ IC50 (MDA-MB-231)
Protocol: (§1) The antiproliferative activities of the cinnamyl and benzodioxyl derivatives were assessed against six human cell lines of three different types of cancer (colon, lung, and breast) using the 3-(4,5-dimethylthiazol-2-yl)-2,5-diphenyltetrazolium bromide (MTT) assay at seven concentrations for 48 h. The results are expressed as the IC50 values and are outlined in Table 1.
(§2) The cell lines were obtained from the American Type Culture Collection (ATCC). All the cancer cell lines (HT-29, HCT-116, H1299, HTB-54, MDA-MB-231 and MCF-7) and the nontumorigenic cells (184B5) were maintained in RPMI 1640 medium (Gibco), supplemented with 10% fetal bovine serum (FBS; Gibco) and 1% antibiotics (10.00 units/mL penicillin and 10.00 mg/mL streptomycin; Gibco). Cells were preserved in tissue culture flasks at 37 °C and 5% CO2. Culture medium was replaced every three days.
(§3) The cytotoxic effect of each compound was initially tested at seven different concentrations ranging between 0.5 and 100 µM in the cell lines mentioned above. The cells were seeded (1 × 10^4 cells per well) in 96-well plates and incubated at 37 °C and 5% CO2 for 24 h. After attachment, cells were treated with either dimethyl sulfoxide (DMSO) or increasing concentrations of the corresponding selenocompound for 48 h. The effect of the compounds on cell viability was determined by the MTT assay. In brief, 20 µL of MTT (5 mg/mL) was added to each well 2.5 h prior to experiment termination. At the end of the incubation, the medium was removed, and the formazan crystals were dissolved in 50 µL of DMSO. Absorbance was measured at 550 nm on a microplate reader. IC50 values were calculated using OriginPro 8.5.1. software by nonlinear curve fitting. Selectivity indexes were calculated as the ratio of the IC50 values determined for the nonmalignant and the tumoral cells in the breast cell lines (IC50 (184B5)/IC50 (MDA-MB-231) and IC50 (184B5)/IC50 (MCF-7)). Data were obtained from at least three independent experiments performed in triplicates.

MCF-7 = test: Antiproliferative MTT assay, MCF-7 breast cancer cells; type: cell-based, human; conditions: SI calculated as IC50 (184B5)/ IC50 (MCF-7)
Protocol: as §1, §2, §3

O=C(CC[Se]CC=Cc1ccccc1)[c-]1cccc1.[Fe+2].c1cc[cH-]c1 [Compound 1c, 3-(Cinnamylselanyl)-1-ferrocenylpropan-1-one]
SI a (MDA-MB-231): 0.8 | SI b (MCF-7): 1.3

O=C(CC[Se]Cc1ccc2c(c1)OCO2)[c-]1cccc1.[Fe+2].c1cc[cH-]c1 [Compound 2c, 3-((Benzo[d][1,3]dioxol-5-ylmethyl)selanyl)-1-ferrocenylpropan-1-one]
SI a (MDA-MB-231): 1.6 | SI b (MCF-7): 3.4

N#C[Se]C/C=C/c1ccccc1 [Compound 1a, (E)-(3-selenocyanatoprop-1-en-1-yl)benzene]
SI a (MDA-MB-231): 0.8 | SI b (MCF-7): 1.0

N#C[Se]Cc1ccc2c(c1)OCO2 [Compound 2a, 5-(Selenocyanatomethyl)benzo[d][1,3]dioxole]
SI a (MDA-MB-231): 1.1 | SI b (MCF-7): 0.8
